Data on 30 sequences can be found in article PMC7862700.

What all share (assay): DAPPL (digital affinity profiling via proximity ligation, sequencing)
Holding throughout (settings): 10 mM Tris-HCl pH 7.5, 50 mM NaCl, 1 mM DTT, 4% glycerol, room temperature, 30 min; GST-TFs on glutathione beads, 16-mer random dsDNA library, 0.1% …; high values mean tight binding; double strand, one strand shown; scale: fold enrichment (6-mer frequency, TF over GST control)

The target in one test is T1, ELK1 (UniProt P19419).
T1 sequence: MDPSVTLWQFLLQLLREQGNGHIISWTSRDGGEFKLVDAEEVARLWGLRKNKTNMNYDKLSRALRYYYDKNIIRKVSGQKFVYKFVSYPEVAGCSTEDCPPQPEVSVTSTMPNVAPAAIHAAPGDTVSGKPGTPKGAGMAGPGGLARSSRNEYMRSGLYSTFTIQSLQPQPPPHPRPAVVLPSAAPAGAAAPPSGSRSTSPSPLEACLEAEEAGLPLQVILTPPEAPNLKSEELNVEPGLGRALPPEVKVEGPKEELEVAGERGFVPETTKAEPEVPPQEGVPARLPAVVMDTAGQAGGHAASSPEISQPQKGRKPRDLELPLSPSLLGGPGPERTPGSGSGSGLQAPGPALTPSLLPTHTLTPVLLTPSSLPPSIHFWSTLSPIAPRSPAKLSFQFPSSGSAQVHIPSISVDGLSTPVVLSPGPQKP

For another test, the target named is T2, ELK3 (UniProt P41970).
T2 sequence: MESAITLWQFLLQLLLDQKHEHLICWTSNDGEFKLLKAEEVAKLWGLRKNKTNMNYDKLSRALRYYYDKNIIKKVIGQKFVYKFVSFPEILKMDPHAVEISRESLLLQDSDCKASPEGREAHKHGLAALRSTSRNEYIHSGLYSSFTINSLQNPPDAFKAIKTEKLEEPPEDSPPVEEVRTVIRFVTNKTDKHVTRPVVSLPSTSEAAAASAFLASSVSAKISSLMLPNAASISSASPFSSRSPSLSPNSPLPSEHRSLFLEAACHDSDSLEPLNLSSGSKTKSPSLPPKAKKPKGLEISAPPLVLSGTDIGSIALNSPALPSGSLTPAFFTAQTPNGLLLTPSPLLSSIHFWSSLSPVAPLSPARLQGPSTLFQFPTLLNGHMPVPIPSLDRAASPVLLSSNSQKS

The target in another test is T3, SPIC (UniProt Q8N5J4).
T3 sequence: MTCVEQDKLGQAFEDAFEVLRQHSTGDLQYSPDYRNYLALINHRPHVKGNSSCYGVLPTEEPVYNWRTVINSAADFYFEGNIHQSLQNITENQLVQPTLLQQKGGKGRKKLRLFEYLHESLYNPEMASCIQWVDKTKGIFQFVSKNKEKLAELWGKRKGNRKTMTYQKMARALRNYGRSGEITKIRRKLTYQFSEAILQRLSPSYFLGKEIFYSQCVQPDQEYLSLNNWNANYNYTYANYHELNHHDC

The next test deals with T4, ETS2 (UniProt P15036).
T4 sequence: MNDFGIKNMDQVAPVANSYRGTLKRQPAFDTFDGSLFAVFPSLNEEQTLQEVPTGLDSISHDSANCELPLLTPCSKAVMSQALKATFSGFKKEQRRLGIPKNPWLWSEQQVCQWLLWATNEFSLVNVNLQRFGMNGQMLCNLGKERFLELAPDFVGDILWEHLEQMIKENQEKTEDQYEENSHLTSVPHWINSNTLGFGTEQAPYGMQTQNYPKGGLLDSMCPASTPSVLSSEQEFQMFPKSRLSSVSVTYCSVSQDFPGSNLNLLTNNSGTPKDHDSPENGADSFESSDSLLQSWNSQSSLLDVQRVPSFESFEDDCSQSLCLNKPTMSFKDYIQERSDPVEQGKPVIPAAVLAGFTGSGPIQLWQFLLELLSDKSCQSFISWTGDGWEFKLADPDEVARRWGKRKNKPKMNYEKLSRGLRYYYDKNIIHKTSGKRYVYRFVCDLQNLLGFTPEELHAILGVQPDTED

The target of the next test is T5, ETV3 (UniProt P41162-2).
T5 sequence: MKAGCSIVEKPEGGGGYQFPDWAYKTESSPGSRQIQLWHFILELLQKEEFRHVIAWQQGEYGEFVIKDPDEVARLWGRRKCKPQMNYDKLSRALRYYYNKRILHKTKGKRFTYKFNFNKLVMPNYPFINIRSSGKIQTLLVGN

The entries are a selection whose mix differs from that of the whole data set. At the low end of the ranking the order means little.

For the sequence GGCGTC, the binding signal in the test with ELK1 worked out at 0.795; in the test with ELK3, 0.908; in the test with SPIC, 0.755; with ETS2, 0.811; with ETV3, 0.742.

On to AGGCAG, for which the binding signal in the test with ELK1 turned out to be 0.603; with ELK3, 0.517; in the test with SPIC, 0.631; in the test with ETS2 it was 0.549; with ETV3, 0.556.

GGTCAG: the binding signal in the test with ELK1 came out at 0.523; with ELK3 it was 0.535; with SPIC, 0.59; with ETS2, 0.562; with ETV3, 0.553.

For GCATAA, the binding signal in the test with ELK1 was found to be 0.854; with ELK3, 0.769; in the test with SPIC it was 0.78; with ETS2, 0.87; with ETV3 it was 0.794.

With GGGAGG, the binding signal came out at 0.316 in the test with ELK1; 0.341 with ELK3; 0.346 in the test with SPIC; 0.312 in the test with ETS2; 0.318 with ETV3.

Regarding GAGGGC, the binding signal with ELK1 worked out at 0.626; in the test with ELK3, 0.559; with SPIC it was 0.586; with ETS2, 0.625; with ETV3, 0.561.

With ATGTGA, the binding signal stood at 0.642 with ELK1; 0.625 with ELK3; 0.638 in the test with SPIC; 0.64 in the test with ETS2; 0.642 with ETV3.

Take GGGATC: the binding signal with ELK1 is 0.602; with ELK3, 0.64; with SPIC, 0.672; with ETS2 it was 0.663; with ETV3, 0.625.

On to GTCGCC, for which the binding signal in the test with ELK1 worked out at 0.893; in the test with ELK3, 0.881; with SPIC, 0.869; with ETS2 it was 0.892; with ETV3, 0.904.

Turning to GACAAG, the binding signal with ELK1 worked out at 0.754; with ELK3, 0.729; with SPIC, 0.783; in the test with ETS2 it was 0.77; with ETV3, 0.813.

Take CGCAGC: the binding signal is 0.86 in the test with ELK1; 0.789 with ELK3; 0.83 in the test with SPIC; 0.817 in the test with ETS2; 0.776 with ETV3.

On to GCAGAG, for which the binding signal is 0.645 with ELK1; 0.627 with ELK3; 0.718 with SPIC; 0.7 in the test with ETS2; 0.708 with ETV3.

Turning to GAGGGG, the binding signal in the test with ELK1 amounted to 0.498; with ELK3 it was 0.515; with SPIC it was 0.581; in the test with ETS2, 0.547; in the test with ETV3, 0.481.

On to CCAGCC, for which the binding signal in the test with ELK1 is 0.84; in the test with ELK3, 0.864; in the test with SPIC, 0.853; with ETS2, 0.785; in the test with ETV3, 0.788.

Regarding GGTTCG, the binding signal was 0.78 with ELK1; 0.655 in the test with ELK3; 0.928 with SPIC; 0.681 with ETS2; 0.748 with ETV3.

Regarding GATAGA, the binding signal came to 0.836 with ELK1; 0.863 with ELK3; 0.735 with SPIC; 0.767 with ETS2; 0.777 with ETV3.

Turning to GGGACC, the binding signal with ELK1 came to 0.729; in the test with ELK3 it was 0.649; with SPIC, 0.643; with ETS2, 0.65; with ETV3, 0.631.

For GTAGCC, the binding signal in the test with ELK1 came to 0.989; in the test with ELK3 it was 0.962; with SPIC, 0.955; with ETS2, 0.912; with ETV3, 0.948.

For GTCGAG, the binding signal in the test with ELK1 was found to be 0.444; in the test with ELK3, 0.422; with SPIC, 0.464; in the test with ETS2, 0.439; with ETV3, 0.43.

Turning to GTGTAG, the binding signal with ELK1 was 0.678; in the test with ELK3 it was 0.725; with SPIC, 0.692; with ETS2 it was 0.619; in the test with ETV3 it was 0.673.

Consider GGGGGT, for which the binding signal in the test with ELK1 was determined as 0.559; with ELK3 it was 0.597; in the test with SPIC it was 0.599; with ETS2, 0.514; with ETV3, 0.538.

Consider AGCAAG, for which the binding signal with ELK1 amounted to 0.895; in the test with ELK3 it was 0.894; with SPIC, 0.831; with ETS2 it was 0.932; with ETV3, 0.871.

Take GAGAAC: the binding signal with ELK1 came out at 0.415; with ELK3 it was 0.44; with SPIC, 0.426; in the test with ETS2 it was 0.39; with ETV3 it was 0.397.

Turning to GCTGTG, the binding signal with ELK1 is 0.609; in the test with ELK3, 0.699; with SPIC it was 0.72; in the test with ETS2, 0.792; with ETV3, 0.703.

With GCCGAG, the binding signal with ELK1 is 0.707; in the test with ELK3, 0.678; with SPIC, 0.645; in the test with ETS2, 0.622; in the test with ETV3, 0.67.

Regarding TGAGGT, the binding signal stood at 0.638 with ELK1; 0.585 with ELK3; 0.642 with SPIC; 0.635 with ETS2; 0.675 in the test with ETV3.

As to ACGGCG, the binding signal with ELK1 stood at 0.827; with ELK3 it was 0.806; with SPIC, 0.745; with ETS2, 0.786; with ETV3, 0.889.

On to CGTGGG, for which the binding signal in the test with ELK1 worked out at 0.372; with ELK3, 0.342; in the test with SPIC it was 0.361; with ETS2 it was 0.382; with ETV3 it was 0.337.

With ACCAGA, the binding signal is 0.884 with ELK1; 0.928 in the test with ELK3; 0.922 in the test with SPIC; 0.859 with ETS2; 0.834 with ETV3.

In the case of AGCGAG, the binding signal with ELK1 came out at 0.553; with ELK3 it was 0.611; with SPIC, 0.487; in the test with ETS2 it was 0.654; with ETV3 it was 0.622.
